Where a name gives a salt, the structure may show the parent alone. Some entries share one result that the patent states for a list of compounds.
Tested on: MPTP
Assay: Calcium Retention Capacity (CRC) assay on isolated mouse liver mitochondria
Assay type: biochemical
Details: compound 1 μM, ratio CRCi/CRCo

Molecule `O=C(/C=C/c1ccc(F)c(O)c1)Nc1cccc2ccccc12` [Compound 72, (E)-3-(4-Fluoro-3-hydroxy-phenyl)-N-naphthalen-1-yl-acrylamide] has a CRC efficacy greater than 2.
Work on `Cc1ccc(/C=C/C(=O)Nc2cccc(Cl)c2)cc1O` [Compound 71, (E)-N-(3-Chloro-phenyl)-3-(3-hydroxy-4-methyl-phenyl)-acrylamide] yielded a CRC efficacy greater than 2.
`O=C(/C=C/c1ccc(F)c(O)c1)Nc1cccc2cnn(Cc3ccccc3)c12` [Compound 158, (E)-N-(1-Benzyl-1H-indazol-7-yl)-3-(4-fluoro-3-hydroxy-phenyl)-acrylamide] gave a CRC efficacy greater than 2.
For `O=C(/C=C/c1ccc(F)c(O)c1)Nc1cccc(Cl)c1Cl` [Compound 51, (E)-N-(2,3-Dichloro-phenyl)-3-(4-fluoro-3-hydroxy-phenyl)-acrylamide], the CRC efficacy was greater than 2.
`O=C(/C=C/c1ccc(F)c(O)c1)Nc1ccccc1COc1ccccc1` [Compound 21, (E)-3-(4-Fluoro-3-hydroxy-phenyl)-N-(2-phenoxymethyl-phenyl)-acrylamide] showed a CRC efficacy greater than 2.
In the case of `COc1ccc(/C=C/C(=O)Nc2ccc(Cl)c(OCc3ccncc3)c2)cc1O` [Compound 17, (E)-N-[4-Chloro-3-(pyridin-4-ylmethoxy)-phenyl]-3-(3-hydroxy-4-methoxy-phenyl)-acrylamide], the CRC efficacy is reported as greater than 2.
Molecule `COc1ccc(/C=C/C(=O)Nc2cc(Cl)ccc2COc2ccccc2)cc1O` [Compound 141, (E)-N-(5-Chloro-2-phenoxymethyl-phenyl)-3-(3-hydroxy-4-methoxy-phenyl)-acrylamide] has a CRC efficacy greater than 2.
`COc1ccc(/C=C/C(=O)Nc2cccc3ccn(Cc4ccc(-n5ccnc5)cc4)c23)cc1O` [Compound 163, (E)-3-(3-Hydroxy-4-methoxy-phenyl)-N-[1-(4-imidazol-1-yl-benzyl)-1H-indol-7-yl]-acrylamide] gave a CRC efficacy greater than 2.
`Cl.O=C(/C=C/c1ccc(F)c(O)c1)Nc1cccc(OCc2ccncc2)c1` [Compound 78, (E)-3-(4-Fluoro-3-hydroxy-phenyl)-N-[3-(pyridin-4-ylmethoxy)-phenyl]-acrylamide hydrochloride] showed a CRC efficacy greater than 2.
Work on `COc1ccc(/C=C/C(=O)Nc2ccccc2COc2ccc(OC3CCN(C)CC3)cc2)cc1O.Cl` [Compound 159, (E)-3-(3-Hydroxy-4-methoxy-phenyl)-N-{2-[4-(1-methyl-piperidin-4-yloxy)-phenoxymethyl]-phenyl}-acrylamide hydrochloride] yielded a CRC efficacy greater than 2.
Work on `COc1ccc(/C=C/C(=O)Nc2ccccc2COc2cccc(C(F)(F)F)c2)cc1O` [Compound 143, (E)-3-(3-Hydroxy-4-methoxy-phenyl)-N-[2-(3-trifluoromethyl-phenoxymethyl)-phenyl]-acrylamide] yielded a CRC efficacy greater than 2.
Work on `COc1ccc(/C=C/C(=O)Nc2ccccc2COc2ccccc2F)cc1O` [Compound 46, (E)-N-[2-(2-Fluoro-phenoxymethyl)-phenyl]-3-(3-hydroxy-4-methoxy-phenyl)-acrylamide] yielded a CRC efficacy greater than 2.
Molecule `COc1ccc(/C=C/C(=O)NC2CCc3ccccc32)cc1O` (centres unmarked) [Compound 25, (E)-3-(3-Hydroxy-4-methoxy-phenyl)-N-indan-1-yl-acrylamide] has a CRC efficacy greater than 2.
`COc1ccc(/C=C/C(=O)Nc2cccc3ccccc23)cc1O` [Compound 1, (E)-3-(3-Hydroxy-4-methoxy-phenyl)-N-naphthalen-1-yl-acrylamide] showed a CRC efficacy greater than 2.
`COc1ccc(/C=C/C(=O)Nc2cccc3ccn(Cc4ccccc4)c23)cc1O` [Compound 19, (E)-N-(1-Benzyl-1H-indol-7-yl)-3-(3-hydroxy-4-methoxy-phenyl)-acrylamide] showed a CRC efficacy greater than 2.
In the case of `COCc1ccccc1NC(=O)/C=C/c1ccc(OC)c(O)c1` [Compound 47, (E)-3-(3-Hydroxy-4-methoxy-phenyl)-N-(2-methoxymethyl-phenyl)-acrylamide], the CRC efficacy is reported as greater than 2.
Work on `COc1ccc(/C=C/C(=O)Nc2ccccc2COc2cccc(OC3CCN(C)CC3)c2)cc1O.Cl` [Compound 153, (E)-3-(3-Hydroxy-4-methoxy-phenyl)-N-{2-[3-(1-methyl-piperidin-4-yloxy)-phenoxymethyl]-phenyl}-acrylamide hydrochloride] yielded a CRC efficacy greater than 2.
Work on `COc1ccc(/C=C/C(=O)Nc2ccccc2COc2ccccc2)cc1O` [Compound 28, (E)-3-(3-Hydroxy-4-methoxy-phenyl)-N-(2-phenoxymethyl-phenyl)-acrylamide] yielded a CRC efficacy greater than 2.
Work on `COc1ccc(/C=C/C(=O)Nc2ccccc2COc2ccccc2OC)cc1O` [Compound 40, (E)-3-(3-Hydroxy-4-methoxy-phenyl)-N-[2-(2-methoxy-phenoxymethyl)-phenyl]-acrylamide] yielded a CRC efficacy greater than 2.
`O=C(/C=C/c1ccc(Cl)c(O)c1)Nc1cccc(Cl)c1` [Compound 154, (E)-3-(4-Chloro-3-hydroxy-phenyl)-N-(3-chloro-phenyl)-acrylamide] gave a CRC efficacy greater than 2.
For `COc1ccc(/C=C/C(=O)Nc2ccccc2COc2cccc(Cl)c2)cc1O` [Compound 144, (E)-3-(3-Hydroxy-4-methoxy-phenyl)-N-[2-(3-chloro-phenoxymethyl)-phenyl]-acrylamide], the CRC efficacy was greater than 2.
With `COc1ccc(/C=C/C(=O)Nc2cccc(Cl)c2Cl)cc1O` [Compound 8, (E)-N-(2,3-Dichloro-phenyl)-3-(3-hydroxy-4-methoxy-phenyl)-acrylamide] the CRC efficacy was greater than 2.
`COc1ccc(/C=C/C(=O)Nc2cccc(Cl)c2)cc1O` [Compound 55, (E)-N-(3-Chloro-phenyl)-3-(3-hydroxy-4-methoxy-phenyl)-acrylamide] gave a CRC efficacy greater than 2.
`COc1ccc(/C=C/C(=O)Nc2cccc(SCc3ccncc3)c2)cc1O.Cl` [Compound 79, (E)-3-(3-Hydroxy-4-methoxy-phenyl)-N-[3-(pyridin-4-ylmethylsulfanyl)-phenyl]-acrylamide hydrochloride] showed a CRC efficacy greater than 2.
With `COc1ccc(/C=C/C(=O)Nc2cc(Cl)cc3ccccc23)cc1O` [Compound 169, (E)-N-(3-Chloro-naphthalen-1-yl)-3-(3-hydroxy-4-methoxy-phenyl)-acrylamide] the CRC efficacy was greater than 2.
Molecule `COc1ccc(/C=C/C(=O)Nc2ccccc2COc2ccc(CN3CCOCC3)cc2)cc1O` [Compound 145, (E)-3-(3-Hydroxy-4-methoxy-phenyl)-N-[2-(4-morpholin-4-ylmethyl-phenoxymethyl)-phenyl]-acrylamide hydrochloride] has a CRC efficacy greater than 2.
`COc1ccc(/C=C/C(=O)Nc2cccc(OCc3ccccc3)c2)cc1O` [Compound 62, (E)-N-(3-Benzyloxy-phenyl)-3-(3-hydroxy-4-methoxy-phenyl)-acrylamide] was tested, and the CRC efficacy was greater than 2.
`O=C(/C=C/c1ccc(F)c(O)c1)Nc1cccc(SCc2ccncc2)c1` [Compound 157, (E)-3-(4-Fluoro-3-hydroxy-phenyl)-N-[3-(pyridin-4-ylmethylsulfanyl)-phenyl]-acrylamide] gave a CRC efficacy greater than 2.
Molecule `COc1ccc(/C=C/C(=O)Nc2ccc(OC)c(Cl)c2)cc1O` [Compound 7, (E)-N-(3-Chloro-4-methoxy-phenyl)-3-(3-hydroxy-4-methoxy-phenyl)-acrylamide] has a CRC efficacy greater than 2.
With `COc1ccc(/C=C/C(=O)Nc2ccccc2COc2cccc(N3CCN(C)CC3)c2)cc1O` [Compound 166, (E)-3-(3-Hydroxy-4-methoxy-phenyl)-N-{2-[3-(4-methyl-piperazin-1-yl)-phenoxymethyl]-phenyl}-acrylamide hydrochloride] the CRC efficacy was greater than 2.
Work on `COc1ccc(/C=C/C(=O)Nc2ccccc2COc2cccc(F)c2)cc1O` [Compound 48, (E)-N-[2-(3-Fluoro-phenoxymethyl)-phenyl]-3-(3-hydroxy-4-methoxy-phenyl)-acrylamide] yielded a CRC efficacy greater than 2.
With `COc1ccc(/C=C/C(=O)Nc2ccccc2COc2cccc(N3CCNCC3)c2)cc1O` [Compound 171, (E)-3-(3-Hydroxy-4-methoxy-phenyl)-N-[2-(3-piperazin-1-yl-phenoxymethyl)-phenyl]acrylamide] the CRC efficacy was greater than 2.
Molecule `COc1ccc(/C=C/C(=O)Nc2ccccc2COc2ccccc2Cl)cc1O` [Compound 162, (E)-N-[2-(2-Chloro-phenoxymethyl)-phenyl]-3-(3-hydroxy-4-methoxy-phenyl)-acrylamide] has a CRC efficacy greater than 2.
Molecule `COc1cccc(OCc2ccccc2NC(=O)/C=C/c2ccc(OC)c(O)c2)c1` [Compound 39, (E)-3-(3-Hydroxy-4-methoxy-phenyl)-N-[2-(3-methoxy-phenoxymethyl)-phenyl]-acrylamide] has a CRC efficacy greater than 2.
For `COc1ccc(/C=C/C(=O)Nc2cccc3ccn(Cc4cn(C)cn4)c23)cc1O` [Compound 172, (E)-3-(3-Hydroxy-4-methoxy-phenyl)-N-[1-(1-methyl-1H-imidazol-4-ylmethyl)-1H-indol-7-yl]-acrylamide], the CRC efficacy was greater than 2.
Molecule `COc1ccc(/C=C/C(=O)Nc2ccccc2OCc2ccccc2)cc1O` [Compound 2, (E)-N-(2-Benzyloxy-phenyl)-3-(3-hydroxy-4-methoxy-phenyl)-acrylamide] has a CRC efficacy greater than 2.
With `CN1CCC(Oc2ccc(OCc3ccccc3NC(=O)/C=C/c3ccc(F)c(O)c3)cc2)CC1.O=C(O)C(F)(F)F` [Compound 146, (E)-3-(4-Fluoro-3-hydroxy-phenyl)-N-{2-[4-(1-methyl-piperidin-4-yloxy)-phenoxymethyl]-phenyl}-acrylamide trifluoroacetate] the CRC efficacy was greater than 2.
With `COc1ccc(/C=C/C(=O)Nc2cccc3cnn(Cc4ccccc4)c23)cc1O` [Compound 32, (E)-N-(1-Benzyl-1H-indazol-7-yl)-3-(3-hydroxy-4-methoxy-phenyl)-acrylamide] the CRC efficacy was greater than 2.
`O=C(/C=C/c1ccc(F)c(O)c1)Nc1cccc(Br)c1` [Compound 49, (E)-N-(3-Bromo-phenyl)-3-(4-fluoro-3-hydroxy-phenyl)-acrylamide] was tested, and the CRC efficacy was greater than 2.
For `O=C(/C=C/c1ccc(F)c(O)c1)Nc1ccccc1COc1ccc(-n2ccnc2)cc1` [Compound 183, (E)-3-(4-Fluoro-3-hydroxy-phenyl)-N-{2-(4-imidazol-1-yl-phenoxymethyl)-phenyl}-acrylamide], the CRC efficacy was greater than 2.
`COc1ccc(/C=C/C(=O)Nc2ccccc2COc2ccc(F)cc2)cc1O` [Compound 44, (E)-N-[2-(4-Fluoro-phenoxymethyl)-phenyl]-3-(3-hydroxy-4-methoxy-phenyl)-acrylamide] gave a CRC efficacy greater than 2.

Source: US8470831B2, “Acrylamido derivatives useful as inhibitors of the mitochondrial permeability transition” (Cogenia SRL, priority 2008, dated 2013)
